Data: US20250324965A1, “Indicator Clearance Monitoring in Machine Perfusion of an Organ” (The Medical College of Wisconsin, Inc., priority 2021, published 2025)
For some of these results: For at least one compound, name, drawing or mass did not settle the structure. Some entries share one result that the patent states for a list of compounds.

How the values were obtained:
hepatic IRI = assay: BARD single intravenous dose 5 min before ischemia in hepatic IRI, liver and blood analysed 24 h after reperfusion; type: in vivo, rat
[1] = healthy liver; cited from earlier work

| Compound | immunohistochemistry DAB signals for HMTs like NTCP and MRP2 (viable area) (hepatic IRI; single i.v. dose 5 min before ischemia, 24 h after reperfusion) | serum levels of bile acids (hepatic IRI; single i.v. dose 5 min before ischemia, blood 24 h after reperfusion, vs empty vehicle) | mRNA expressions of HMTs, such as Mrp2 or Mrp3 (hepatic IRI; single i.v. dose into inferior vena cava 5 min before ischemia, liver 24 h after reperfusion, vs empty vehicle) | time in which metabolism by the liver through membrane transporters and excretion into bile occurs [1] [min] |
| --- | --- | --- | --- | --- |
| COC(=O)[C@]12CCC(C)(C)C[C@H]1[C@H]1C(=O)C=C3[C@@]4(C)C=C(C#N)C(=O)C(C)(C)[C@@H]4CC[C@@]3(C)[C@]1(C)CC2 [BARD, Bardoxolone methyl] | significantly increased | significantly decreased | increased | – |
| CC1(C)C(/C=C/C=C/C=C/C=C2\N(CCCCS(=O)(=O)O)c3ccc4ccccc4c3C2(C)C)=[N+](CCCCS(=O)(=O)[O-])c2ccc3ccccc3c21 [ICG, Indocyanine green] | – | – | – | ≤ 15 |
